Measurements reported in PubChem BioAssay AID1224831 (NIAID, 2016).
Screen: 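Retesting screen hits on the TLR4-driven TNF response with six separate siRNAs each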 (follow-up of hits). Cell system: human THP-1 B5 monocytic leukaemia cells carrying a TNF promoter luciferase reporter, made macrophage-like with PMA. Knock-down reagent: single siRNA against human genes, 50 nM. Timing: about 68 h of knock-down, then 4 h LPS. Challenge: LPS (Salmonella minnesota, TLR-grade) at 10 ng/ml for 4 h; PMA 5 ng/ml present during knock-down. Detection: 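TNF promoter reporter read as dual luciferase ratio after 4 h LPS, normalised per plate to its median, given as replicate mean robust z-score per siRNA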. Reading the numbers: TNF reporter z-score: higher = stronger LPS-induced TNF reporter signal; z-score, median over gene's siRNAs: higher = stronger TNF reporter signal across the gene's siRNAs. Rule for the call: 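Two-sided call: reduced or raised TNF reporter signal counts as active once mean z reaches about -1 or below, or about 1.5 or above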. Meaning of the calls: active = changed TNF reporter (either direction); inactive = little change.
Shown is one part, drawn at random, of about 3,500 deposited reagents. 731 of all reagents (21%) were called active. 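Active means either lowered or raised reporter signal; the gene-median score did not drive the per-siRNA calls.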 Reagents against one gene are numbered here.

target | reagent no. | TNF reporter z-score, replicate mean | z-score, median over gene's siRNAs | activity call
PPL | 1 | 0.09 | -0.115 | inactive
PPL | 2 | -0.5 | -0.115 | inactive
PPL | 3 | -0.83 | -0.115 | inactive
PPL | 4 | 0.56 | -0.115 | inactive
PPL | 5 | 1.47 | -0.115 | inactive
PPL | 6 | -0.32 | -0.115 | inactive
EIF4G1 | 1 | -1.67 | -0.82 | active
EIF4G1 | 2 | -2.55 | -0.82 | active
EIF4G1 | 3 | -0.62 | -0.82 | inactive
EIF4G1 | 4 | -0.89 | -0.82 | inactive
EIF4G1 | 5 | 1.14 | -0.82 | inactive
EIF4G1 | 6 | -0.75 | -0.82 | inactive
UCN3 | 1 | -2.15 | -0.395 | active
UCN3 | 2 | -0.49 | -0.395 | inactive
UCN3 | 3 | -0.21 | -0.395 | inactive
UCN3 | 4 | -1.37 | -0.395 | active
UCN3 | 5 | 0.03 | -0.395 | inactive
UCN3 | 6 | -0.3 | -0.395 | inactive
POFUT1 | 1 | -0.99 | 0.405 | inactive
POFUT1 | 2 | 0.47 | 0.405 | inactive
POFUT1 | 3 | 0.25 | 0.405 | inactive
POFUT1 | 4 | 0.78 | 0.405 | inactive
POFUT1 | 5 | 0.34 | 0.405 | inactive
POFUT1 | 6 | 0.93 | 0.405 | inactive
ZBTB46 | 1 | -2.45 | -0.755 | active
ZBTB46 | 2 | -0.64 | -0.755 | inactive
ZBTB46 | 3 | -0.67 | -0.755 | inactive
ZBTB46 | 4 | -1.2 | -0.755 | active
ZBTB46 | 5 | 1.26 | -0.755 | inactive
ZBTB46 | 6 | -0.84 | -0.755 | inactive
RGS20 | 1 | 0.8 | 0.085 | inactive
RGS20 | 2 | -0.03 | 0.085 | inactive
RGS20 | 3 | 0.15 | 0.085 | inactive
RGS20 | 4 | 0.02 | 0.085 | inactive
RGS20 | 5 | -0.4 | 0.085 | inactive
RGS20 | 6 | 0.6 | 0.085 | inactive

Records above with an active call (6):
target | reagent no. | TNF reporter z-score, replicate mean | z-score, median over gene's siRNAs | activity call
EIF4G1 | 1 | -1.67 | -0.82 | active
EIF4G1 | 2 | -2.55 | -0.82 | active
UCN3 | 1 | -2.15 | -0.395 | active
UCN3 | 4 | -1.37 | -0.395 | active
ZBTB46 | 1 | -2.45 | -0.755 | active
ZBTB46 | 4 | -1.2 | -0.755 | active
